A short description of data set [1]: in vitro. As to conditions: PAMPA.
Data set [2] in a line: in vitro. The following applies: PAMPA. The source holds these as a separate data set. Background: In PAMPA a lipid-coated filter parts donor from acceptor wells.

SMILES strings stand for the structures.

As to `COc1cc2c(cc1OC)C(=O)C(CC1CCN(Cc3ccccc3)CC1)C2` (configuration not stated) [DONEPEZIL], the Papp (commonly the rate of passage across a membrane or cell layer, normalised by area and donor concentration) at 100 µM was 6.8 ×10⁻⁶ cm/s in the data set “in vitro [1]” and 8.9 ×10⁻⁶ cm/s in “in vitro [2]”.

These data come from ChEMBL document CHEMBL4196084 (Eur J Med Chem, 2018).
